The entries are a selection whose mix differs from that of the whole data set.
These targets were tested with COC(=O)C#Cc1ccccc1 [methyl 3-phenylpropiolate] (assay: log2 ratio of iodoacetamide-alkyne labeling of the cysteine site, DMSO over compound (competition); higher = stronger covalent engagement of the cysteine by the compound, active = 1 or more). Conditions: 500 µM; treatment time 1 h; system: HEK293T cell lysate.
How it was run: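 Three replicates, each with duplicate channels, were prepared from HEK293T lysate (2 mg/mL) treated with vehicle or electrophile at 500 µM for 1 h at ambient temperature. Iodoacetamide alkyne was then applied for 1 h, and samples were clicked to sCIP-TMT reagents, pooled, trypsin-digested overnight at 37 °C, enriched on streptavidin, acid-eluted and analysed on Orbitrap Eclipse LC-MS/MS with FAIMS, with FragPipe quantification. The log2 competition ratio per cysteine is the mean control-channel divided by the mean compound-channel reporter intensity. Cysteines quantified in only one replicate were left out.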

log2 ratio of iodoacetamide-alkyne labeling, inactive:
UniProt Q13247_C61 -0.0753
TBL3 C696 (UniProt Q12788) 0.373
AKAP12 C578 (UniProt Q02952) 0.281
G3BP1 C73 (UniProt Q13283) 0.276
CHAF1A C465 (UniProt Q13111) 0.368
AKAP12 C1521 (UniProt Q02952) 0.126
TCOF1 C1012 (UniProt Q13428) 0.438
EIF4G1 C819 (UniProt Q04637) 0.142
GTF3C1 C2089 (UniProt Q12789) 0.156
POLE C2148 (UniProt Q07864) 0.264
UniProt Q12905_C271 0.137
TLE1 C89 (UniProt Q04724) 0.362
UniProt Q08117_C89 0.488
NSUN2 C184 (UniProt Q08J23) -0.0329
TRAF2 C112 (UniProt Q12933) 0.213
NUP160 C1003 (UniProt Q12769) 0.385
PRDX1 C71 (UniProt Q06830) 0.39
NFX1 C1067 (UniProt Q12986) 0.112
EP300 C1163 (UniProt Q09472) 0.615

Pulled one by one from the list above:
log2 ratio of iodoacetamide-alkyne labeling, inactive:
TCOF1 C1012 (UniProt Q13428) 0.438
NUP160 C1003 (UniProt Q12769) 0.385

Following part.

log2 ratio of iodoacetamide-alkyne labeling, active:
UniProt Q13155_C23 1.24
UniProt Q02930_C69 1.09
TLE1 C526 (UniProt Q04724) 1.15
CHAF1A C190 (UniProt Q13111) 1.08

— the supplement of paper PMC11006884
